Results are given in words; binding and its absence hold for the method and conditions named. Binding seen in cells or lysates may run through a third protein. Some binding calls cover weakened binding; strength is not graded here.
Target: G3BP stress granule assembly factor 1 (human (endogenous in monocyte-derived macrophages)) (UniProt Q13283)
Assay: co-IP; lysates from MDMs-M2; coimmunoprecipitation with G3BP1 or DDX3Y antibody, rabbit isotype IgG as control; endogenous proteins

By UniProt entry, the sequences of proteins in these tests, tags left out.
UniProt Q13283: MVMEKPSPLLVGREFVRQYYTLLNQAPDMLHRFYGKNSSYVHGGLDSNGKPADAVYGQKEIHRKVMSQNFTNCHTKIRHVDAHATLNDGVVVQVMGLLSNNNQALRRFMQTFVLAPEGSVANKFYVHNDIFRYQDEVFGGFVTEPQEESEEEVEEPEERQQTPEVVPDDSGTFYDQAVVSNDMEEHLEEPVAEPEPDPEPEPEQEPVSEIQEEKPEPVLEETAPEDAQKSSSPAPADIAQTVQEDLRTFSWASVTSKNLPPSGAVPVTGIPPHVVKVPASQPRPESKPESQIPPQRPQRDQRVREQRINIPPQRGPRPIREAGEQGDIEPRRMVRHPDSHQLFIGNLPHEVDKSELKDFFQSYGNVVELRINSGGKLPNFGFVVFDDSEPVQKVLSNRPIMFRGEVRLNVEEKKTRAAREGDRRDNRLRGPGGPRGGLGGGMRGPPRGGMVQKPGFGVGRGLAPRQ
UniProt O15523: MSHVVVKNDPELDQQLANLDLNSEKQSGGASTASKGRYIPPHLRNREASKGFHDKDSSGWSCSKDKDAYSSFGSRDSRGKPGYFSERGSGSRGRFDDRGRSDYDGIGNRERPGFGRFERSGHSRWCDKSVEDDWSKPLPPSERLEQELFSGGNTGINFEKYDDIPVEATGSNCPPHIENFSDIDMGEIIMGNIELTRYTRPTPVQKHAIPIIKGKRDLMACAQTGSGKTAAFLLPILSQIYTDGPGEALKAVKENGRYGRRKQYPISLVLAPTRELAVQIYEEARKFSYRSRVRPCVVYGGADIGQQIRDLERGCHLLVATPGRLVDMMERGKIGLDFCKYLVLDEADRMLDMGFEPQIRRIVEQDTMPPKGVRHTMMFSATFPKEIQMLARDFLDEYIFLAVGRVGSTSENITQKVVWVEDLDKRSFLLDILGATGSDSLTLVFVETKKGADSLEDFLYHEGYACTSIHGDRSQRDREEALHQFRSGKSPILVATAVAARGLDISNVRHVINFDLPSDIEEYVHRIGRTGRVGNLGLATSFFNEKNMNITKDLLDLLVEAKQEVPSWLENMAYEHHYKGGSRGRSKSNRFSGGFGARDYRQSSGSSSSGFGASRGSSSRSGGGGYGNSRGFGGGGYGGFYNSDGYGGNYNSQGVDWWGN

binding: binds
Substance: DEAD-box helicase 3 Y-linked (from UniProt O15523 1-660)

— PMC9657876
